{"source": "paper PMC7475184", "about": "(Heliyon, 2020)", "system": "MCF7 (breast) cells", "experiment": "Cytotoxic activity, Cell Titer 96 proliferation kit", "assay_type": "cell-based", "settings": "Homo sapiens, MCF7, read-out: IC50, MCF7", "in_short": "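Cells grown in DMEM with 10% fetal bovine serum and 2 mM glutamine at 37 °C under 5% CO2. Test compounds at 100, 10, 1, 0.1 and 0.01 μg/mL for a dose-response curve. Viability read with a Cell Titer 96 aqueous kit by absorbance at 450 nm. Paclitaxel reference. Triplicates in three independent experiments; IC50 by regression analysis.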", "data": [{"molecule": "CC(=O)O[C@H]1C(=O)[C@@]2(C)[C@H]([C@H](OC(=O)c3ccccc3)[C@]3(O)C[C@H](OC(=O)[C@H](O)[C@@H](NC(=O)c4ccccc4)c4ccccc4)C(C)=C1C3(C)C)[C@]1(OC(C)=O)CO[C@@H]1C[C@@H]2O", "note": "[Paclitaxel, reference compound]", "values": [{"measurement": "IC50", "result": 4.27, "unit": "ng/mL"}]}]}
